The record followed here is patent US20220387602A1, “BIFUNCTIONAL DEGRADERS AND THEIR METHODS OF USE” (NOVARTIS AG, priority 2019, published 2022).

Amino acid sequences for entries named in this document (tags omitted).
UniProt Q06187, whole entry: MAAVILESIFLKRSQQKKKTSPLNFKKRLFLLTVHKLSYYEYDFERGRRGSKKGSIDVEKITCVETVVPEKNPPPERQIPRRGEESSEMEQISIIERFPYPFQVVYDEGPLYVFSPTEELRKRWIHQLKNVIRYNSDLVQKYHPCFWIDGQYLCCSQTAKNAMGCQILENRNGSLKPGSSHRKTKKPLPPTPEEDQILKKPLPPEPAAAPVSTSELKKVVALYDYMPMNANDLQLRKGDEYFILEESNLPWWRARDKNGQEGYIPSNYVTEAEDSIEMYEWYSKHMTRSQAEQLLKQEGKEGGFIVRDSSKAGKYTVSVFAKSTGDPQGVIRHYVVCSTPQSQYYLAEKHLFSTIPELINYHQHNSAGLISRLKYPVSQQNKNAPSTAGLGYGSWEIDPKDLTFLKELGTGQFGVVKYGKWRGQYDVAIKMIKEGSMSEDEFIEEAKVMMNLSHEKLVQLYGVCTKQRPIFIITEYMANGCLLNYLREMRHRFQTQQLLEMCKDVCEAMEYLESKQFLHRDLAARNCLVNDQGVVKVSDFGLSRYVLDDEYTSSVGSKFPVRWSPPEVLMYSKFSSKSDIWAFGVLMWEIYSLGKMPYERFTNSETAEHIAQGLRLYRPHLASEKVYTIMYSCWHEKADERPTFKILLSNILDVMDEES
UniProt Q96SW2, whole entry: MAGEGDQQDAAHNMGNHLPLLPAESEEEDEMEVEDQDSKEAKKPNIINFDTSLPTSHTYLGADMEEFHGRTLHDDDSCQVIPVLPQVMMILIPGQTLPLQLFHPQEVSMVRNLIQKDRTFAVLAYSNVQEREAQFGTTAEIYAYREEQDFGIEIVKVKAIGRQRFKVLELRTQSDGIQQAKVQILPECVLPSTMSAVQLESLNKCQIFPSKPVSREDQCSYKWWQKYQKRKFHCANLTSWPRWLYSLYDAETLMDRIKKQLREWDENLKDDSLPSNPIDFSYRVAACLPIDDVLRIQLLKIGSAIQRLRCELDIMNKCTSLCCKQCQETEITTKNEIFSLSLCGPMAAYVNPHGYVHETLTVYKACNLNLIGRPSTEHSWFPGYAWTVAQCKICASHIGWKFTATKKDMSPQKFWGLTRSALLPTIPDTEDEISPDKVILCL

Structures were worked out from names or drawings and are uncertain.

The target in one assay is BTK (Homo sapiens, UniProt Q06187). Kind of assay: BTK-GFP protein abundance flow cytometry assay in HEK293A. It counts as cell-based. The following applies: % protein remaining at the concentration at which maximum degradation is seen, 24 h.
A further assay has as its target CRBN (Homo sapiens, UniProt Q96SW2). Kind of assay: CRBN displacement assay Format 1 (fluorescence polarization, BodipyFL-lenalidomide probe Compound HH). The settings on record: read-out: CRBN AC50 [μM] Format1; bifunctional degraders, Table 5. On the technique in general: Polarisation of emitted light reports the rotation of a fluorescent probe.

Consider `COc1ccc(C(=O)N2CCC3(CCN(Cc4ccc(-c5cc6c(-c7cc(F)cc(NC(=O)c8ccc(C(C)(C)O)cc8F)c7C)ncnc6[nH]5)cc4)CC3)CC2)cc1N1CCC(=O)NC1=O`, for which, at BTK, the “BTK degradation Amax” value is given as 4.5%. At CRBN, the AC50 came out at 0.587 µM.

For orientation: AC50 means the concentration at which the activity in the assay is half-maximal.
